Reference: PubChem BioAssay AID1053208 (Peter MacCallum Cancer Centre, 2014)
In all, the deposit lists about 17,000 reagents; this is a part drawn at random. Of all reagents, 788 (4.7%) are marked active. 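Calls rest on z-score classes alone; an extra cut-off of viability at most 70% of control was not applied to them.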 Further read-outs or replicates are left out here.

- Aim: 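Synthetic lethal interactions between gene loss and doxorubicin in osteosarcoma cells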 (primary screen)
- Cells: mouse osteosarcoma cells, early-passage culture from an engineered mouse model of fibroblastic bone tumour
- Knock-down reagent: siRNA pool against mouse genes, 40 nM
- Time to read-out: about 120 h (48 h before drug, then 72 h with drug)
- Treatment: doxorubicin 100 nM for 72 h, roughly 30-40% inhibitory dose
- Read-out: 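Viability read as ATP luminescence after 72 h of 100 nM doxorubicin or none, duplicate wells averaged, scaled to non-targeting siRNA, then expressed as robust z-scores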
- Direction: viability z-score with doxorubicin: higher = more viable cells under doxorubicin; viability z-score without drug: higher = more viable cells with knock-down alone
- Call rule: 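a pool counts as active when its viability z-score with doxorubicin is -2 or below and its z-score without drug lies between -2 and 2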

Knock-down of Pdcd2 (GeneID 18567) gave: combined z-score class no change with or without drug; viability z-score with doxorubicin 1.24; viability z-score without drug 0.17; inactive. Silencing of Cd200r3 (GeneID 74603) resulted in: combined z-score class no change with or without drug; viability z-score with doxorubicin 1.8; viability z-score without drug 0.17; inactive. Silencing of Mims2 (GeneID 67017) resulted in: combined z-score class no change with or without drug; viability z-score with doxorubicin 1.8; viability z-score without drug 0.84; inactive. For Dnajb12 (GeneID 56709) the deposit lists combined z-score class no change with or without drug; viability z-score with doxorubicin -0.67; viability z-score without drug 0.51; inactive. Knock-down of Htatsf1 (GeneID 72459) resulted in: combined z-score class no change with or without drug; viability z-score with doxorubicin 0.79; viability z-score without drug -1.52; inactive. Silencing of Ace2 (GeneID 70008) gave: combined z-score class no change with or without drug; viability z-score with doxorubicin 1.24; viability z-score without drug -0.51; inactive.

Depletion of Cd74 (GeneID 16149) came out at: combined z-score class no change with or without drug; viability z-score with doxorubicin 1.57; viability z-score without drug 0.84; inactive. With knock-down of Lmtk2 (GeneID 231876), the record shows combined z-score class no change with or without drug; viability z-score with doxorubicin 0.22; viability z-score without drug 1.52; inactive. Against Shcbp1 (GeneID 20419), the entry reads combined z-score class no change with or without drug; viability z-score with doxorubicin -0.45; viability z-score without drug 0.34; inactive. Knock-down of Nell1 (GeneID 338352) gave: combined z-score class no change with or without drug; viability z-score with doxorubicin 0.67; viability z-score without drug -0.51; inactive. After knock-down of Sec16a (GeneID 227648) the results were combined z-score class no change with or without drug; viability z-score with doxorubicin 0.34; viability z-score without drug -0.51; inactive. With knock-down of Fahd1 (GeneID 68636) the results were combined z-score class low cell count without drug only; viability z-score with doxorubicin -0.67; viability z-score without drug -2.36; inactive.

For Hcn2 (GeneID 15166) the deposit lists combined z-score class no change with or without drug; viability z-score with doxorubicin 0; viability z-score without drug 0.17; inactive. Depletion of Tenm4 (GeneID 23966) came out at: combined z-score class no change with or without drug; viability z-score with doxorubicin 1.8; viability z-score without drug 0.84; inactive. With knock-down of Arhgap33 (GeneID 233071) the results were combined z-score class no change with or without drug; viability z-score with doxorubicin -1.69; viability z-score without drug -0.84; inactive. Csl (GeneID 71832) showed combined z-score class no change with or without drug; viability z-score with doxorubicin 0.45; viability z-score without drug -0.51; inactive. Against Or5an1c (GeneID 258683), the values are combined z-score class no change with or without drug; viability z-score with doxorubicin 0.22; viability z-score without drug 1.18; inactive. Pkmyt1 (GeneID 268930) gave combined z-score class no change with or without drug; viability z-score with doxorubicin -0.34; viability z-score without drug -1.35; inactive.

Entries above whose target name begins with A or a (2):
Ace2 (GeneID 70008): combined z-score class = no change with or without drug; viability z-score with doxorubicin = 1.24; viability z-score without drug = -0.51; outcome = inactive
Arhgap33 (GeneID 233071): combined z-score class = no change with or without drug; viability z-score with doxorubicin = -1.69; viability z-score without drug = -0.84; outcome = inactive

Continued.
Arf1 (GeneID 11840) scored combined z-score class no change with or without drug; viability z-score with doxorubicin -1.01; viability z-score without drug -1.69; inactive. Xlr4b (GeneID 27083) gave combined z-score class no change with or without drug; viability z-score with doxorubicin 1.35; viability z-score without drug 1.18; inactive. With knock-down of Rabep1 (GeneID 54189), the record shows combined z-score class no change with or without drug; viability z-score with doxorubicin -0.11; viability z-score without drug 0.51; inactive. For Snip1 (GeneID 76793), the values are combined z-score class no change with or without drug; viability z-score with doxorubicin -0.34; viability z-score without drug -1.01; inactive. Against Lrrc66 (GeneID 231296), the values are combined z-score class no change with or without drug; viability z-score with doxorubicin 0.56; viability z-score without drug -0.34; inactive. Against Ccdc73 (GeneID 211936), the entry reads combined z-score class high cell count without drug only; viability z-score with doxorubicin 1.12; viability z-score without drug 4.05; inactive.

Against Hand1 (GeneID 15110), the entry reads combined z-score class no change with or without drug; viability z-score with doxorubicin -1.24; viability z-score without drug 0.17; inactive. With knock-down of Fam187b (GeneID 76415) the results were combined z-score class low cell count with doxorubicin only; viability z-score with doxorubicin -2.59; viability z-score without drug -0.51; active. For Trpa1 (GeneID 277328), the values are combined z-score class no change with or without drug; viability z-score with doxorubicin -0.11; viability z-score without drug 1.18; inactive. Atat1 (GeneID 73242) showed combined z-score class no change with or without drug; viability z-score with doxorubicin 0.22; viability z-score without drug 1.85; inactive.
